Source: the supplement of paper PMC12823440, “Inhibitors supercharge kinase turnover through native proteolytic circuits” (Nature, 2025)
Counter-ions that a name gives are not always drawn. This is one part of the list. The calls rarely recur for the same compound in another form.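 Kinases were expressed as nanoluciferase fusions in K562 cells and luminescence was read every 4 h between 2 and 18 h as percent of control, DMSO set to 100% and a positive control to 0%. A time point counts as decreased when the signal drops significantly (2 sigma). The hit call is the authors' own, does not follow from the count of time points alone, and its rule is not shown.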

Sequences of proteins named here, by UniProt entry; tags and fusion partners are left off. A change or cut given only in a name is not applied to a line headed by its entry.
UniProt P28482, whole entry: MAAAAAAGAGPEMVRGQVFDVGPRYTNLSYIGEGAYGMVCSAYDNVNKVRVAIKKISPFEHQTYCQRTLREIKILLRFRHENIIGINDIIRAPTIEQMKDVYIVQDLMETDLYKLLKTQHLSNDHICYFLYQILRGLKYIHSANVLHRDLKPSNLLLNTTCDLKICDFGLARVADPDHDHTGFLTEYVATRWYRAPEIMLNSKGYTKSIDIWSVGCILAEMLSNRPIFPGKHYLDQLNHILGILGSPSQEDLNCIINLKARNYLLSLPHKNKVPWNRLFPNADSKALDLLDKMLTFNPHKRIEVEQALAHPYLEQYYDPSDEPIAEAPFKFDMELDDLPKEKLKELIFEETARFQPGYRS
UniProt P49137, whole entry, looked up: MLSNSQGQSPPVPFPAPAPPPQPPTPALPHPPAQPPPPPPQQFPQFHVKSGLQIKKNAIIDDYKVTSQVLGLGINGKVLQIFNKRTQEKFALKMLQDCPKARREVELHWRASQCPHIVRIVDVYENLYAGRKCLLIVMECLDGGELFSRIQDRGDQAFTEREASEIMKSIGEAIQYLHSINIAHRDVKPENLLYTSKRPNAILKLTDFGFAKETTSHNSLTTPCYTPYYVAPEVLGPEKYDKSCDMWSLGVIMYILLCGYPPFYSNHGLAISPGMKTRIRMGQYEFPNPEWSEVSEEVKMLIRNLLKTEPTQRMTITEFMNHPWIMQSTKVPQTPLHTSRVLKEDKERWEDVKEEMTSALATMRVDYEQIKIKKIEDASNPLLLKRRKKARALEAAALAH
UniProt Q9BUB5: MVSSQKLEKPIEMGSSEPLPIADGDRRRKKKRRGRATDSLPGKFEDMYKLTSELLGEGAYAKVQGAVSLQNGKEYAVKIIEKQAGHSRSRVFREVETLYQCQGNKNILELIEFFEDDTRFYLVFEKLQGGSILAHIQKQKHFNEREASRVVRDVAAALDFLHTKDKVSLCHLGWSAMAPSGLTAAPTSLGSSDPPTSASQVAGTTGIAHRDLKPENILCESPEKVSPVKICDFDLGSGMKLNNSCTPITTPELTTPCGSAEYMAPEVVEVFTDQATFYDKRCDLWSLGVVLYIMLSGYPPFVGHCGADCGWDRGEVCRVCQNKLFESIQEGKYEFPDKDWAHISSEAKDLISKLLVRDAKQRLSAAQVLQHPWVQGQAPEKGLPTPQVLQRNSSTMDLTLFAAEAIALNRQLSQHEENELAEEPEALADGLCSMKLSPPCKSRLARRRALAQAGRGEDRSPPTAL
UniProt Q16620, whole entry, looked up: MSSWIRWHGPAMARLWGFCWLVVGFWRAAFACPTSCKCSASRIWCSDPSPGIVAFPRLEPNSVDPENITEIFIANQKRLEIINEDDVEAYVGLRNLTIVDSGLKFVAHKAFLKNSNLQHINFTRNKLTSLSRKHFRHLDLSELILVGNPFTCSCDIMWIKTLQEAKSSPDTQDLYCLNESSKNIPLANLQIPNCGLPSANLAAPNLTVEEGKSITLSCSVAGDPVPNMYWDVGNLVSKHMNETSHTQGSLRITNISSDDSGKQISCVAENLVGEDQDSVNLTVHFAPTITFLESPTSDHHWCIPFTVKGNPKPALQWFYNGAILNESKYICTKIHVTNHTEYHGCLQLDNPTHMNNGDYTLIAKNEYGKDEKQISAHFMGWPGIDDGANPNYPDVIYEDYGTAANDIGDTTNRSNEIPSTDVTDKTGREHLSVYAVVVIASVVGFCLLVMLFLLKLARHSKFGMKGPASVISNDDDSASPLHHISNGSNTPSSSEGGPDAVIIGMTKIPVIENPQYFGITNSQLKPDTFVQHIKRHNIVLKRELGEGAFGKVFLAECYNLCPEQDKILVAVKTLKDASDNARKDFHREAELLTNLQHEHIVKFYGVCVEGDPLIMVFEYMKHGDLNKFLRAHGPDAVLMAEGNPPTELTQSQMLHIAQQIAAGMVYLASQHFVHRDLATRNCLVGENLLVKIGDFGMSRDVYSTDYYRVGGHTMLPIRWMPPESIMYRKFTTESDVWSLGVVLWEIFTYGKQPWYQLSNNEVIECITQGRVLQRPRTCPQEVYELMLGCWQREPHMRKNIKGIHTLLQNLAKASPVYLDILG
UniProt Q16288, whole entry, looked up: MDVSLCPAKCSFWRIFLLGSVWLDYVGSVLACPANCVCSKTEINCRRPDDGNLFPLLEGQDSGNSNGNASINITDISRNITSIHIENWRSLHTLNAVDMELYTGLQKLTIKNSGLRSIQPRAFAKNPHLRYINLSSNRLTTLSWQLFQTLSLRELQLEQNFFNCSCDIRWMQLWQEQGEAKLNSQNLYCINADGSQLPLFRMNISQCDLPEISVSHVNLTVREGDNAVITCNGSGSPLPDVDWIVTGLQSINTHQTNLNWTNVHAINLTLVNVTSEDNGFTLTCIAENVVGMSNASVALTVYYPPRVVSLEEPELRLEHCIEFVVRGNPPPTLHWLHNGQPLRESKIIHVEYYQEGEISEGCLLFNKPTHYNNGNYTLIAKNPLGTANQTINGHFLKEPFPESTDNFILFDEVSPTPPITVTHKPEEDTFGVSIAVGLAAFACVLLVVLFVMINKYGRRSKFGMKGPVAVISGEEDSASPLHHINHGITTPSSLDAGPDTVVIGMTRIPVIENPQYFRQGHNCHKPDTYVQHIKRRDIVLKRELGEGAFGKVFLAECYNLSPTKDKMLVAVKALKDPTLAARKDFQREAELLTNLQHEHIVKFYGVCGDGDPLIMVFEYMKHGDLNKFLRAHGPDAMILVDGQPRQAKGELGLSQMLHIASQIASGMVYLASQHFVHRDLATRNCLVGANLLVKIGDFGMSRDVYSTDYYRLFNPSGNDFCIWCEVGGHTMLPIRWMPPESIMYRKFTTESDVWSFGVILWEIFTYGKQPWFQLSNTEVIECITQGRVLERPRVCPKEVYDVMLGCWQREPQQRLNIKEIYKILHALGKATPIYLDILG
UniProt O96013: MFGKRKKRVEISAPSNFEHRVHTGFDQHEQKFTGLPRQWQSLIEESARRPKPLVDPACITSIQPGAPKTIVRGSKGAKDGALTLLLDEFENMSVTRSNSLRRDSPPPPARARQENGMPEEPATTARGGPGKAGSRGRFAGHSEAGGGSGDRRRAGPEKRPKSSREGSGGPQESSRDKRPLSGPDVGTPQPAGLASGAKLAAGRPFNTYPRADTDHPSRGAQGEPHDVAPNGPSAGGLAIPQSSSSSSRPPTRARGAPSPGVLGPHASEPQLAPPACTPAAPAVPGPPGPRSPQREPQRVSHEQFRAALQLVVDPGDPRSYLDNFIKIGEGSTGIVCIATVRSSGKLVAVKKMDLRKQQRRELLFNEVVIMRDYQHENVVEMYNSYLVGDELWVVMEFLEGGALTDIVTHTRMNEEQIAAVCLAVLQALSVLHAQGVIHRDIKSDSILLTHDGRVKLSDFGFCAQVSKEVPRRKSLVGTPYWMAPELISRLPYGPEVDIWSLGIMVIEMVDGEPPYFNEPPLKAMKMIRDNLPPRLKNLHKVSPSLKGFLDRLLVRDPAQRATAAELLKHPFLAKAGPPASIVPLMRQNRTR
UniProt Q96KB5: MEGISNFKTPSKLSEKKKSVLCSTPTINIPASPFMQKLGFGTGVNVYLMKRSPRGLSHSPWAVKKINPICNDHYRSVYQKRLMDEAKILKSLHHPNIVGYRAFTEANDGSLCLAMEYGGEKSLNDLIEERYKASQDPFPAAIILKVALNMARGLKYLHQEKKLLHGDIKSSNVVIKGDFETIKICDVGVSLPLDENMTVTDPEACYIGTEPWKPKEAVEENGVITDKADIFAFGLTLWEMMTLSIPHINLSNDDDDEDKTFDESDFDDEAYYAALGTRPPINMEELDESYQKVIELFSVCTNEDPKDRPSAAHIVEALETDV
UniProt Q15118, whole entry, looked up: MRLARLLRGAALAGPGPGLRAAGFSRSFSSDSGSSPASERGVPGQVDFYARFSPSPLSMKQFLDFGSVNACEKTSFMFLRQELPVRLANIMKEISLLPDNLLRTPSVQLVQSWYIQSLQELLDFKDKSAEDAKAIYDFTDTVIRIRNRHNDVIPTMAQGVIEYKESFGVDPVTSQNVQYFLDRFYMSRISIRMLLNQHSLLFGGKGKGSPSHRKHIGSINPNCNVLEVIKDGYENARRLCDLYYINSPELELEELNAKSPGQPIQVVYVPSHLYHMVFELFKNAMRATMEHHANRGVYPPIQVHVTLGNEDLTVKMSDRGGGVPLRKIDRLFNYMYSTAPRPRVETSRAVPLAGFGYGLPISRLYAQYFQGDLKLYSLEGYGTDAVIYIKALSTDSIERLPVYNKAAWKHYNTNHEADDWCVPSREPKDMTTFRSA
UniProt P53350, whole entry: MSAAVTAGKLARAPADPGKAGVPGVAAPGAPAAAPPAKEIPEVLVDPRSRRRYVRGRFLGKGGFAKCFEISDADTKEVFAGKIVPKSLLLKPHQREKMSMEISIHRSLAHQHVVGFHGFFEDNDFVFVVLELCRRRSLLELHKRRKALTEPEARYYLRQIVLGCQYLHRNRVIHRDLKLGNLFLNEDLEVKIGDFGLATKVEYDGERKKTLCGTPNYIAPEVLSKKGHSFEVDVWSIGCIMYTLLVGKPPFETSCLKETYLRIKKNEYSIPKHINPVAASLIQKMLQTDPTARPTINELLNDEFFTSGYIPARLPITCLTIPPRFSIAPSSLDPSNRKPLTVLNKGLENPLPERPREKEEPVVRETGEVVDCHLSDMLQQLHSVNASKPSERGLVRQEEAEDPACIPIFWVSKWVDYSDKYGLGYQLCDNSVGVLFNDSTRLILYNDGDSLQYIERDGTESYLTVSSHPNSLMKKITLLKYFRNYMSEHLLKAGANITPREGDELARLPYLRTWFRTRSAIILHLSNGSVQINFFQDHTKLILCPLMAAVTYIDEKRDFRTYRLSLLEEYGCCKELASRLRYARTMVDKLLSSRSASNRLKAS
UniProt Q13131: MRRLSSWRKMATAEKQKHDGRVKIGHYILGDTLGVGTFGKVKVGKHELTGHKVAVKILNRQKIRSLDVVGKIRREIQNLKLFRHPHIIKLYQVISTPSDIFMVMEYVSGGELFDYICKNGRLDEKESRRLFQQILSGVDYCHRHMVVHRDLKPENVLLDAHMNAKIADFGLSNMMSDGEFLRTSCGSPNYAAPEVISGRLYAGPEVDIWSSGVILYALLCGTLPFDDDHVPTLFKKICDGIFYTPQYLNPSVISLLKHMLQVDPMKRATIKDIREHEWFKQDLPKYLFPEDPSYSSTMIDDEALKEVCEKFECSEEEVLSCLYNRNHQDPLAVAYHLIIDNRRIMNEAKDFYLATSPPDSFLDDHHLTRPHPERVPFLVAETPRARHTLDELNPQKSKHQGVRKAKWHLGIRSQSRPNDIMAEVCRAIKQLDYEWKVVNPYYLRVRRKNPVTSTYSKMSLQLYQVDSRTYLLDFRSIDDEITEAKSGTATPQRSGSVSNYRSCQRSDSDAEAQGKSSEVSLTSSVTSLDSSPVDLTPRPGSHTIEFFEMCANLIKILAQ

How the values were obtained:
Test in all cases: kinase-Nluc reporter destabilization hit call (1 = scored as downregulated) (binary); higher = compound decreases kinase abundance
Conditions in all cases: K562; 2-18 h
[1] = molecular target: MAPK1 (UniProt P28482)
[2] = molecular target: MAPK4 (UniProt P31152)
[3] = molecular target: MAPKAPK2 (UniProt P49137)
[4] = molecular target: MKNK1 (UniProt Q9BUB5)
[5] = molecular target: NTRK2 (UniProt Q16620)
[6] = molecular target: NTRK3 (UniProt Q16288)
[7] = molecular target: PAK4 (UniProt O96013)
[8] = molecular target: PBK (UniProt Q96KB5)
[9] = molecular target: PDGFRB (UniProt P09619)
[10] = molecular target: PDK1 (UniProt Q15118)
[11] = molecular target: PDPK1 (UniProt O15530)
[12] = molecular target: PIK4CA (UniProt P42356)
[13] = molecular target: PIK4CB (UniProt Q9UBF8)
[14] = molecular target: PLK1 (UniProt P53350)
[15] = molecular target: PRKAA1 (UniProt Q13131)
[16] = molecular target: PRKCA (UniProt P17252)
[17] = molecular target: PTK2 (UniProt Q05397)
[18] = molecular target: PTK2B (UniProt Q14289)
[19] = molecular target: RAF1 (UniProt P04049)
[20] = molecular target: RAF1_S257L (clone: RAF1_mut) (UniProt P04049)

Measured: kinase-Nluc reporter destabilization hit call

CS(=O)(=O)N1CCN(Cc2cn3cc(-c4cnc(N)nc4)nc(N4CCOCC4)c3n2)CC1 (10 µM)
inactive: [1] 0 | [2] 0 | [3] 0 | [4] 0 | [5] 0 | [6] 0 | [7] 0 | [8] 0 | [9] 0 | [10] 0 | [11] 0 | [12] 0 | [13] 0 | [14] 0 | [15] 0 | [16] 0 | [17] 0 | [18] 0 | [19] 0 | [20] 0

CNC[C@@H](NC(=O)c1ccc(-c2nc([C@H]3CC[C@H](O)[C@@H](F)C3)cnc2N)cc1F)c1cc(F)cc(Br)c1 [Rineterkib] (10 µM)
inactive: [1] 0 | [2] 0 | [3] 0 | [4] 0 | [5] 0 | [6] 0 | [7] 0 | [8] 0 | [9] 0 | [10] 0 | [11] 0 | [12] 0 | [13] 0 | [14] 0 | [15] 0 | [16] 0 | [17] 0 | [18] 0 | [19] 0 | [20] 0

C=CC(=O)Nc1cccc(Nc2nc(Nc3ccc(Oc4ccnc(C(=O)NC)c4)cc3)ncc2F)c1 (2.5 µM)
inactive: [1] 0 | [2] 0 | [3] 0 | [4] 0 | [5] 0 | [6] 0 | [7] 0 | [8] 0 | [9] 0 | [10] 0 | [11] 0 | [12] 0 | [13] 0 | [14] 0 | [15] 0 | [16] 0 | [17] 0 | [18] 0 | [19] 0 | [20] 0

O=C1c2c(O)cc(O)cc2O[C@H](c2cc(O)c(O)c(O)c2)[C@H]1O [Dihydromyricetin] (10 µM)
inactive: [1] 0 | [2] 0 | [3] 0 | [4] 0 | [5] 0 | [6] 0 | [7] 0 | [8] 0 | [9] 0 | [10] 0 | [11] 0 | [12] 0 | [13] 0 | [14] 0 | [15] 0 | [16] 0 | [17] 0 | [18] 0 | [19] 0 | [20] 0

CN(C)CCCNc1ccn2ncc(-c3ccc4c(c3)OCO4)c2n1 (10 µM)
inactive: [1] 0 | [2] 0 | [3] 0 | [4] 0 | [5] 0 | [6] 0 | [7] 0 | [8] 0 | [9] 0 | [10] 0 | [11] 0 | [12] 0 | [13] 0 | [14] 0 | [15] 0 | [16] 0 | [17] 0 | [18] 0 | [19] 0 | [20] 0

Cc1ccc(-n2c(-c3ccc(O)cc3O)n[nH]c2=O)cc1 (10 µM)
active: [20] 1
inactive: [1] 0 | [2] 0 | [3] 0 | [4] 0 | [5] 0 | [6] 0 | [7] 0 | [8] 0 | [9] 0 | [10] 0 | [11] 0 | [12] 0 | [13] 0 | [14] 0 | [15] 0 | [16] 0 | [17] 0 | [18] 0 | [19] 0

Arranged by molecular weight (high to low): part of the list above.
CNC[C@@H](NC(=O)c1ccc(-c2nc([C@H]3CC[C@H](O)[C@@H](F)C3)cnc2N)cc1F)c1cc(F)cc(Br)c1 [Rineterkib] (10 µM)
inactive: [1] 0 | [2] 0 | [3] 0 | [4] 0 | [5] 0 | [6] 0 | [7] 0 | [8] 0 | [9] 0 | [10] 0 | [11] 0 | [12] 0 | [13] 0 | [14] 0 | [15] 0 | [16] 0 | [17] 0 | [18] 0 | [19] 0 | [20] 0

C=CC(=O)Nc1cccc(Nc2nc(Nc3ccc(Oc4ccnc(C(=O)NC)c4)cc3)ncc2F)c1 (2.5 µM)
inactive: [1] 0 | [2] 0 | [3] 0 | [4] 0 | [5] 0 | [6] 0 | [7] 0 | [8] 0 | [9] 0 | [10] 0 | [11] 0 | [12] 0 | [13] 0 | [14] 0 | [15] 0 | [16] 0 | [17] 0 | [18] 0 | [19] 0 | [20] 0

O=C1c2c(O)cc(O)cc2O[C@H](c2cc(O)c(O)c(O)c2)[C@H]1O [Dihydromyricetin] (10 µM)
inactive: [1] 0 | [2] 0 | [3] 0 | [4] 0 | [5] 0 | [6] 0 | [7] 0 | [8] 0 | [9] 0 | [10] 0 | [11] 0 | [12] 0 | [13] 0 | [14] 0 | [15] 0 | [16] 0 | [17] 0 | [18] 0 | [19] 0 | [20] 0

(further entries)

Cn1cc(-c2cn3nccc3c(-c3cnn([C@]4(CC#N)C[C@@H](C#N)C4)c3)n2)cn1 (10 µM)
inactive: [1] 0 | [2] 0 | [3] 0 | [4] 0 | [5] 0 | [6] 0 | [7] 0 | [8] 0 | [9] 0 | [10] 0 | [11] 0 | [12] 0 | [13] 0 | [14] 0 | [15] 0 | [16] 0 | [17] 0 | [18] 0 | [19] 0 | [20] 0

CCCCNc1ncc2c(-c3ccc(CN4CCN(C)CC4)cc3)cn([C@H]3CC[C@H](O)CC3)c2n1 [UNC2025 (hydrochloride)] (2.5 µM)
inactive: [1] 0 | [2] 0 | [3] 0 | [4] 0 | [5] 0 | [6] 0 | [7] 0 | [8] 0 | [9] 0 | [10] 0 | [11] 0 | [12] 0 | [13] 0 | [14] 0 | [15] 0 | [16] 0 | [17] 0 | [18] 0 | [19] 0 | [20] 0

NC(=O)c1ccc2nc(-c3ccc(C4(N)CCC4)cc3)c(-c3ccccc3)n2n1 (10 µM)
inactive: [1] 0 | [2] 0 | [3] 0 | [4] 0 | [5] 0 | [6] 0 | [7] 0 | [8] 0 | [9] 0 | [10] 0 | [11] 0 | [12] 0 | [13] 0 | [14] 0 | [15] 0 | [16] 0 | [17] 0 | [18] 0 | [19] 0 | [20] 0

CCS(=O)(=O)c1ccc(Oc2cc(O[C@@H](C)CO)cc(C(=O)Nc3ccn(C)n3)c2)cn1 (10 µM)
inactive: [1] 0 | [2] 0 | [3] 0 | [4] 0 | [5] 0 | [6] 0 | [7] 0 | [8] 0 | [9] 0 | [10] 0 | [11] 0 | [12] 0 | [13] 0 | [14] 0 | [15] 0 | [16] 0 | [17] 0 | [18] 0 | [19] 0 | [20] 0

C=CC(=O)Nc1cccc(Oc2nc(Nc3ccc(N4CCN(C)CC4)cc3)nc3ccsc23)c1 [Olmutinib] (2.5 µM)
inactive: [1] 0 | [2] 0 | [3] 0 | [4] 0 | [5] 0 | [6] 0 | [7] 0 | [8] 0 | [9] 0 | [10] 0 | [11] 0 | [12] 0 | [13] 0 | [14] 0 | [15] 0 | [16] 0 | [17] 0 | [18] 0 | [19] 0 | [20] 0

CC(C)Cn1cc(C#N)c2cc(Oc3ccc(NC(=O)[C@@H]4CCCN4)cc3)ccc21 (10 µM)
inactive: [1] 0 | [2] 0 | [3] 0 | [4] 0 | [5] 0 | [6] 0 | [7] 0 | [8] 0 | [9] 0 | [10] 0 | [11] 0 | [12] 0 | [13] 0 | [14] 0 | [15] 0 | [16] 0 | [17] 0 | [18] 0 | [19] 0 | [20] 0

CCN1C(C)(C)CC(Oc2ccc(C(=O)Nc3ccc(NC(=O)Nc4cc(C(C)(C)C)on4)cc3)nc2)CC1(C)C (10 µM)
inactive: [1] 0 | [2] 0 | [3] 0 | [4] 0 | [5] 0 | [6] 0 | [7] 0 | [8] 0 | [9] 0 | [10] 0 | [11] 0 | [12] 0 | [13] 0 | [14] 0 | [15] 0 | [16] 0 | [17] 0 | [18] 0 | [19] 0 | [20] 0

O=C(Nc1nccs1)C(c1cc(F)ccc1O)N1Cc2ccccc2C1=O (stereo not given) (10 µM)
inactive: [1] 0 | [2] 0 | [3] 0 | [4] 0 | [5] 0 | [6] 0 | [7] 0 | [8] 0 | [9] 0 | [10] 0 | [11] 0 | [12] 0 | [13] 0 | [14] 0 | [15] 0 | [16] 0 | [17] 0 | [18] 0 | [19] 0 | [20] 0

COc1cccc2cc(-c3nc([C@H]4CC[C@H](C(=O)O)CC4)n4ncnc(N)c34)[nH]c12 (2.5 µM)
inactive: [1] 0 | [2] 0 | [3] 0 | [4] 0 | [5] 0 | [6] 0 | [7] 0 | [8] 0 | [9] 0 | [10] 0 | [11] 0 | [12] 0 | [13] 0 | [14] 0 | [15] 0 | [16] 0 | [17] 0 | [18] 0 | [19] 0 | [20] 0

O=C(O)[C@]1(Cc2cccc(Nc3nccs3)n2)CC[C@@H](Oc2cccc(Cl)c2F)CC1 (2.5 µM)
inactive: [1] 0 | [2] 0 | [3] 0 | [4] 0 | [5] 0 | [6] 0 | [7] 0 | [8] 0 | [9] 0 | [10] 0 | [11] 0 | [12] 0 | [13] 0 | [14] 0 | [15] 0 | [16] 0 | [17] 0 | [18] 0 | [19] 0 | [20] 0

Cc1occ2c1C(=O)c1c(O)ccc(O)c1C2 (2.5 µM)
inactive: [1] 0 | [2] 0 | [3] 0 | [4] 0 | [5] 0 | [6] 0 | [7] 0 | [8] 0 | [9] 0 | [10] 0 | [11] 0 | [12] 0 | [13] 0 | [14] 0 | [15] 0 | [16] 0 | [17] 0 | [18] 0 | [19] 0 | [20] 0

Clc1ccc(Nc2cccc(-c3cn[nH]c3)c2)cc1 (10 µM)
inactive: [1] 0 | [2] 0 | [3] 0 | [4] 0 | [5] 0 | [6] 0 | [7] 0 | [8] 0 | [9] 0 | [10] 0 | [11] 0 | [12] 0 | [13] 0 | [14] 0 | [15] 0 | [16] 0 | [17] 0 | [18] 0 | [19] 0 | [20] 0
